Earlier results as cited in US9045714B2, “Dihydrobenzofuran derivatives as fragrance and/or flavoring materials” (Symrise AG, priority 2012, dated 2015).

Conditions: commercial musk fragrances of the prior art; cited from earlier work

Row | SMILES | odor description
1 | CC(=O)c1cc2c(cc1C)C(C)(C)[C@H](C)[C@H]2C(C)C [Traseolide®] | woody, musky
2 | CC(=O)c1cc2c(cc1C)C(C)(C)C(C)C2(C)C (stereo not drawn) [Phantolide®] | musky
3 | CC(=O)c1cc(C(C)(C)C)cc2c1CCC2(C)C [Celestolide®] | strong musk note
